# Screen size: about 53,000 sequences; about 3,700 (7%) were called active.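 How the source made its calls: active means gene knockdowns whose robust z-score for IL-1 alpha signal is at least 2 or at most -2, so actives lie on both sides; inactive means the rest.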 This is one part of the list.
# Assay: Components of the Cytosolic LPS Sensing Pathway: Gene Identification via Genome-wide siRNA Screen;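 further: robust z of the log signal after scaling to non-targeting control siRNA wells of the plate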
# Conditions: RAW264.7 macrophages, IL-1a HTRF, actives lie on both sides, screened at 100 nM (by protocol), cells primed 5 h with Pam3CSK4 first
# In short: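 IL-1a HTRF of supernatants after 24 hour LipidA transfection of Pam3CSK4-primed (5 hours) RAW264.7 cells, 48h post-siRNA transfection (100 nM). Scores: percent of plate negative-control median, then log-based robust z-score.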
row,Sequence,z-score
1,GGAUAAACCAGAAACCUUCTT against Msmo1,inactive: -0.0602
2,GGAGAUCCAAUGAACCUACTT against 4932414J04Rik,inactive: 1.7
3,GCCCAAGGUAACAACAAGCTT against Rtn4r,inactive: 1.28
4,CCACAAUUUUUUCUGCCUCTT against Olfr492,inactive: -0.694
5,GCACUACCUGUAUUAAACUTT against Efhd2,inactive: -0.652
6,GGAGGAAAGGGAAGAAUUUTT against Rnf125,inactive: 1
7,GCUUAUAAUGGCAAUAUUGTT against Nvl,inactive: 0.275
8,GGCCACUUAAAUCAGAACUTT against Hoxc8,inactive: 0.817
9,GCUACGGAACCUCUAGACATT against Cbln3,inactive: 0.179
10,CGACAACGACAUCAUGGAATT against Sfrp2,inactive: 1.52
11,GGUUCUCACGCGGUUUUUGTT against Pigv,inactive: -0.307
12,GCCUUAAGUAUUGUUACUUTT against Tnfrsf25,inactive: 0.847
13,GGAUGGAAUGCAUCGAUUATT against Adipor2,inactive: 0.481
14,CCAGGAACCAGAAAAAGAUTT against Aven,inactive: 0.0457
15,GCAAAUUUAGUUGACCUUGTT against Ghitm,inactive: -0.561
16,GCAAUACUCACCUCUUAAATT against Scamp2,inactive: 1.04
17,GGUAACUGGGAAUUGUGUUTT against Vti1a,inactive: 0.812
18,GGAGACAUCUCAAAUGAUATT against Trim30a,inactive: 0.324
19,GCCAUUCAUGGAGAAGGAUTT against Lman1l,inactive: -1.63
20,GGUAGAGCCUGACAUCAACTT against Ppp2r3d,inactive: 1.41
21,GCUGGACUAACAUUGCUGUTT against Tmem270,inactive: -0.758
22,AGUGCUUUGUAAUGCUUGGTT against H2bc8,inactive: -0.228

row,Sequence,z-score
1,CGCAAGUGGAUUGUAAUAATT against Sema3e,inactive: -0.19
2,CACUGAACAGAUCAGAGCATT against Fam189b,active: -2.44
3,AUAUAGACCUCGUUACGUATT against Nkain2,inactive: 1.39
4,GGAAACAGGAAAGUUAAUUTT against Fyco1,inactive: 1.05
5,GCUGGAUAGCUAAAAUGAUTT against Gimap5,inactive: -0.0294
6,GGGCCUAUUAAUCUUGAGUTT against Klrb1b,inactive: 0.153
7,GGAAAAAAAAGUCUUCCUATT against Ttll6,inactive: -0.0777
8,CCAUAUCCUGAAUACACCCTT against Olfr295,inactive: -1.43
9,GGCAGACUGCUGACAUAUGTT against Cd37,active: -2.44
10,GCGGACAGGACAUUGAUCUTT against Arpc3,inactive: -0.339
11,GGUCAGAGCCAAUUUCUAUTT against Kcnmb1,inactive: -1.53
12,GGUUCUGCACAUCUGAACATT against Cst3,inactive: -0.109
13,GGCAAUCCUAACACAGAAUTT against Cgrrf1,inactive: -0.905
14,GGAACAAUUCUGGGUAAUUTT against Bcl2l10,inactive: -0.648
15,CCCACUUGUGGCAGUGUACTT against Stub1,inactive: 0.818
16,GGACUGUUUUAGAUUACUUTT against Klra4,inactive: 0.968
17,CGGACACUUUCUGUACUUATT against Mgat2,inactive: -0.44
18,GGAAAACCUAGAAGAUAAUTT against Syt16,inactive: -1.35
19,CGAGAGUAACUUUCGUCAGTT against Dedd,inactive: 1.07
20,CCCAUACUAAGGAACUGCATT against Tnfrsf12a,inactive: -0.323
21,GGACCAUAUCAUUGAUAUATT against Thoc3,inactive: -0.908
22,GGCUAAAUUCUACUUGAUATT against Ppfibp1,inactive: -1.89

row,Sequence,z-score
1,GGAAAACUACUAAAAAGUCTT against Zfp938,inactive: -0.31
2,CGCAGUUAUAUUCCACCACTT against Slain1,inactive: -0.317
3,GGAGCAUCCCGACUACAAGTT against Sox21,active: 3.54
4,GGAGCCAAGUGUACAGUCUTT against Stk19,inactive: 0.451
5,GCAGAACGUAUUCUGAAACTT against Uap1,inactive: 0.605
6,GGAUCUUAAGAAGUUCCAATT against Chchd6,inactive: -0.104
7,GGUUGUAGACGUAAAUGACTT against Pcdhgc3,inactive: -0.235
8,GGGUAAACAAACAGGUACCTT against Tril,inactive: 0.0864
9,GCACUUGCUAUUAGUGUCCTT against Rhod,inactive: -0.286
10,GGCAAUAACCAGUAAAUGUTT against Maf,inactive: 0.522
11,GGUAUCAAGUGCAGAAUGUTT against Slc37a1,inactive: 1.65
12,GAAUCCGAGAUACGAGCCUTT against H2-D4,inactive: 0.0829
13,GGAUCAGAACGUGGUGCAUTT against Slc12a5,inactive: -0.504
14,GGAGAUGAUCUUCAACCUUTT against Eya2,inactive: 1.63
15,GGCAGACCGGUAUUUUGUGTT against Ascc2,inactive: 0.458
16,GGGUAUCUGUUCUGAUACUTT against Lsm11,inactive: 0.329
17,GGGCAACAUUGCGCAAAUGTT against Pwp2,inactive: -1.4
18,GGACAAUCCAUAAGUUAAATT against Scai,inactive: 0.22
19,GGUGAUCAAUACAAGCCGATT against Art1,inactive: -0.534
20,GCUAAUGUCCGGUUUGUUGTT against Recql5,inactive: -0.75
21,CGGAAAGGCGAGGGAUACUTT against Fkbp5,inactive: -1.63
22,CCAAGCAUAUGUGGUUGUUTT against Gpbp1l1,active: -2.01

row,Sequence,z-score
1,GCAGUGACCUCUGGUCAUUTT against Abcc1,inactive: -0.133
2,GGGCUCUACUAUUUUUUUUTT against Polh,active: -2.68
3,GGUACAGCUGGUUCUCUUUTT against Olfr1018,inactive: 1.2
4,GGACAACAGUGGAAGGCUCTT against Serpinb1a,inactive: 0.841
5,GCCUCUUCAUUUAGCUAAUTT against Klhl10,inactive: 0.85
6,GGAAAAAGAAAAAGAAGGUTT against Timeless,inactive: -1.73
7,CCGUGAACCUAAACCUGUGTT against Rhog,inactive: -0.872
8,GCUGGUGUCUUAUGGCCUATT against 9130008F23Rik,active: -2.02
9,GGCAGUAGCCAGAAGGCAUTT against Rnf215,inactive: 0.373
10,GCACCUAUUCAAUGAGAAGTT against Chrnd,inactive: 0.614
11,GGCUAGAAACUUGAGUUUCTT against Prnp,inactive: 0.831
12,GUUGUCCUCUUUGUCAUCATT against Olfr502,active: -3.63
13,GGUGAAAUAUGUGUAUCAGTT against Psmb9,inactive: 1.39
14,CGAAGCUCAACAGAUUCCUTT against Prl7a2,inactive: -0.278
15,GCGAAAGACAGACACGACCTT against Slc4a4,inactive: 0.377
16,GGAACCAAAGCGAAUUUUATT against Hoxa11,inactive: 0.0373
17,GGAGUGACAAAAAUGUCGGTT against Snx13,inactive: -0.56
18,CCUACAAGAACGAAGAUUUTT against Pla2g4d,inactive: -1.67
19,GGAGUUCAAGAUCUGGAAGTT against 2410004B18Rik,inactive: -0.0896
20,GGCUUCCUCAAGAACUUUCTT against Acly,inactive: 0.0643
21,GCGAUGCUGGCAAGUAUGUTT against Robo1,inactive: 0.45
22,GCCAAUGAAAACCUUUUGCTT against Parp9,inactive: -0.736

row,Sequence,z-score
1,GGUCAUUCGCUUCGAAAAGTT against C1qb,active: -2.05
2,CCACAUACAUUUCACAGGGTT against Kdf1,inactive: -0.806
3,GACCAGAAAUUUAAGUGCUTT against Dnajc30,inactive: 1.5
4,GCUCUAGACAUAUGAGGCUTT against Wee2,inactive: -0.0864
5,GGUUAUUUUGGCUAUAAGATT against Traf3,active: -4
6,CCCGCUUAUGUGUCAGCAUTT against Sdhd,inactive: 0.796
7,GCCAAGUGAUUGAAAAAACTT against Lnpk,inactive: -0.423
8,GGACUGGACACUGAAUAUGTT against Tom1l2,inactive: -1.71
9,GCCACUGAAAGAUAAAGCATT against Map2,inactive: -1.06
10,CCGCUACGCCAUGUAUAAATT against Upp1,inactive: 0.353
11,GGAAUAAAGAGGUUAAGGGTT against Olfr38,inactive: -0.265
12,GCAGUGCGUUAUCUACUGATT against Rb1,inactive: 0.865
13,GGAGAUCAAGGUGAUUUCGTT against Rs1,inactive: 1.55
14,CCCAGACCAUACUACGGAUTT against Calb2,inactive: -1.25
15,GGUUAUAAGCUCCAUCUUGTT against Acy1,inactive: -0.135
16,GGAGUAUAUCCUAUUGAUGTT against Sdc2,inactive: 0.0615
17,GGCUGGUAAAUCCAACUACTT against Xab2,inactive: 0.117
18,GGUUUGUGAACAGCUGUACTT against Gfra3,inactive: 0.617
19,GGUGGAAUUAUGCAUGCUATT against Olfr1094,inactive: 1.45

# Shown bar-delimited: part of the list above.
row | Sequence | z-score
5 | GCACUACCUGUAUUAAACUTT against Efhd2 | inactive: -0.652
6 | GGAGGAAAGGGAAGAAUUUTT against Rnf125 | inactive: 1
7 | GCUUAUAAUGGCAAUAUUGTT against Nvl | inactive: 0.275
8 | GGCCACUUAAAUCAGAACUTT against Hoxc8 | inactive: 0.817
9 | GCUACGGAACCUCUAGACATT against Cbln3 | inactive: 0.179
10 | CGACAACGACAUCAUGGAATT against Sfrp2 | inactive: 1.52
11 | GGUUCUCACGCGGUUUUUGTT against Pigv | inactive: -0.307
12 | GCCUUAAGUAUUGUUACUUTT against Tnfrsf25 | inactive: 0.847
13 | GGAUGGAAUGCAUCGAUUATT against Adipor2 | inactive: 0.481
14 | CCAGGAACCAGAAAAAGAUTT against Aven | inactive: 0.0457
15 | GCAAAUUUAGUUGACCUUGTT against Ghitm | inactive: -0.561
16 | GCAAUACUCACCUCUUAAATT against Scamp2 | inactive: 1.04
17 | GGUAACUGGGAAUUGUGUUTT against Vti1a | inactive: 0.812
18 | GGAGACAUCUCAAAUGAUATT against Trim30a | inactive: 0.324
19 | GCCAUUCAUGGAGAAGGAUTT against Lman1l | inactive: -1.63
20 | GGUAGAGCCUGACAUCAACTT against Ppp2r3d | inactive: 1.41
21 | GCUGGACUAACAUUGCUGUTT against Tmem270 | inactive: -0.758
22 | AGUGCUUUGUAAUGCUUGGTT against H2bc8 | inactive: -0.228
1 | CGCAAGUGGAUUGUAAUAATT against Sema3e | inactive: -0.19
2 | CACUGAACAGAUCAGAGCATT against Fam189b | active: -2.44
3 | AUAUAGACCUCGUUACGUATT against Nkain2 | inactive: 1.39
4 | GGAAACAGGAAAGUUAAUUTT against Fyco1 | inactive: 1.05
5 | GCUGGAUAGCUAAAAUGAUTT against Gimap5 | inactive: -0.0294
6 | GGGCCUAUUAAUCUUGAGUTT against Klrb1b | inactive: 0.153
7 | GGAAAAAAAAGUCUUCCUATT against Ttll6 | inactive: -0.0777
8 | CCAUAUCCUGAAUACACCCTT against Olfr295 | inactive: -1.43
9 | GGCAGACUGCUGACAUAUGTT against Cd37 | active: -2.44
10 | GCGGACAGGACAUUGAUCUTT against Arpc3 | inactive: -0.339
11 | GGUCAGAGCCAAUUUCUAUTT against Kcnmb1 | inactive: -1.53
